From publication doi:10.1101/467423
No constants are given. Whether binding was seen depends on the method and setting. Some binding calls cover weakened binding; strength is not graded here.

Chains of the proteins cited; added tags and fusions are not shown. Lines headed by an entry give the natural chain unless they say otherwise; changes in a name come on top. Residues count along the entry.
UniProt P13020, 50-174: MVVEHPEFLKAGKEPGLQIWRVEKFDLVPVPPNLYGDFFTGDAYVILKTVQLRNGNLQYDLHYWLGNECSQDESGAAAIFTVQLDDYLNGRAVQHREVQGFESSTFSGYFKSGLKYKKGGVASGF

Tests used:
Experiment in all cases: crystal structure
[1] = target: Plasmodium falciparum actin I, wild type (P. falciparum) (UniProt Q8I4X0)
[2] = target: Plasmodium falciparum actin I H74Q mutant (P. falciparum) (UniProt Q8I4X0)
[3] = target: Plasmodium berghei actin II, wild type (P. berghei (from the name PbActII; not spelled out)) (UniProt Q4YU79)
[4] = target: Plasmodium falciparum actin I A272W mutant (P. falciparum) (UniProt Q8I4X0)
[5] = target: Plasmodium falciparum actin I G115A mutant (P. falciparum) (UniProt Q8I4X0)
[6] = target: Plasmodium falciparum actin I F54Y mutant (P. falciparum) (UniProt Q8I4X0)

Measured: binding

Mouse gelsolin segment 1 (from UniProt P13020) (domain or fragment)
binds: all assays above
